Here are results for 1 sequence from publication PMC11935212.

Sequences of proteins named here, by UniProt entry; tags and fusion partners are left off. Residues count along the entry.
UniProt Q15116, 25-170: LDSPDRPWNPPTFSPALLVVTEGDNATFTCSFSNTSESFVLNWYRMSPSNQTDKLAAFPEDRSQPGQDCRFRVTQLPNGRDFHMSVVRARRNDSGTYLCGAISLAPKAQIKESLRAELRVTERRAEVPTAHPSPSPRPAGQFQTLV

The Kd is the constant that tells how readily two partners part at equilibrium.

In series [1] the target is sPD-L1 (soluble programmed death ligand 1) (UniProt Q9NZQ7). The series is described as follows: binding assay. The following applies: dithiol/thiol; chemically modified on both ends (further details not in the material); DPV in 0.1 M PBS with 5 mM ferricyanide (PBS pH 7.2), aptamer on Au NIs/SPCE with MCH and BSA; temperature not given; commercial protein; single-stranded DNA.

For series [2] the target is unchanged. The series is described as follows: aptamer on Au NIs/SPCE, MCH and BSA passivated; sensor LOD 0.76 aM (not a Kd). The note with it: dithiol/thiol, chemically modified on both ends (further details not in the material), DPV in 0.1 M PBS with 5 mM ferricyanide (PBS pH 7.2), temperature not given, commercial protein, single-stranded DNA.
Series [3] addresses PD1 (programmed cell death protein 1) (UniProt Q15116). The series is described as follows: delta current about 5-fold smaller than for sPD-L1. The following applies: dithiol/thiol; chemically modified on both ends (further details not in the material); DPV in 0.1 M PBS with 5 mM ferricyanide (PBS pH 7.2), aptamer on Au NIs/SPCE with MCH and BSA; temperature not given; single-stranded DNA.

The test system of series [4] is insulin. The series can be described thus: delta current about 5-fold smaller than for sPD-L1. The following applies: dithiol/thiol; chemically modified on both ends (further details not in the material); DPV in 0.1 M PBS with 5 mM ferricyanide (PBS pH 7.2), aptamer on Au NIs/SPCE with MCH and BSA; temperature not given; single-stranded DNA.

Construct, isoform or probe ends are uncertain for at least one entry. For some of these results: The comparison behind a weaker result is the experiment's own reference, which may not be listed here.

For the sequence “AAGACGGACCAGCCTTGCCGCAAGACGGACCAGGGATT [sPD-L1 DNA aptamer (38 nt)]”, in series [1], the Kd was 51.3 nM. Further, the binding result in series [2] is reported as “binds”; in series [3] it was “binds more weakly”; in series [4], “binds more weakly”.
